Here are results for 1 molecule from patent US20100169988A1, “MEANS AND METHODS FOR ISOLATING AND DETERMINING NOVEL TARGETS FOR THE TREATMENT OF NEURODEGENERATIVE, NEUROLOGICAL OR NEUROPSYCHIATRIC DISORDERS AND COMPOSITIONS COMPRISING THE SAME” (priority 2006, published 2010).

The target of one test is T1, PrSciAICD(wt).
T1 sequence (peptide, N-terminal biotin via a hydrophilic linker): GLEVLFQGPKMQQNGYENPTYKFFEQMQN
The test can be described thus: PrSciAICD pull-down from SH-SY5Y lysate, PreScission elution, Western blot.

For the next test, the target named is T2, AICD(wt) peptide.
T2 sequence (peptide, N-terminal biotin via a hydrophilic linker): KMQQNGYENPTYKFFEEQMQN
The test can be described thus: bait peptide pull-down from SH-SY5Y lysate, Western blot.

These are yes or no findings as the source states them, for the method shown. In cells and extracts the contact can be indirect. Some binding calls cover weakened binding; strength is not graded here.

B1: X11α (protein, human, UniProt Q02410 1-837, looked up)
chain: MNHLEGSAEVEVTDEAAGGEVNESVEADLEHPEVEEEQQQPPQQQHYVGRHQRGRALEDLRAQLGQEEEERGECLARSASTESGFHNHTDTAEGDVIAAARDGYDAERAQDPEDESAYAVQYRPEAEEYTEQAEAEHAEATHRRALPNHLHFHSLEHEEAMNAAYSGYVYTHRLFHRGEDEPYSEPYADYGGLQEHVYEEIGDAPELDARDGLRLYEQERDEAAAYRQEALGARLHHYDERSDGESDSPEKEAEFAPYPRMDSYEQEEDIDQIVAEVKQSMSSQSLDKAAEDMPEAEQDLERPPTPAGGRPDSPGLQAPAGQQRAVGPAGGGEAGQRYSKEKRDAISLAIKDIKEAIEEVKTRTIRSPYTPDEPKEPIWVMRQDISPTRDCDDQRPMDGDSPSPGSSSPLGAESSSTSLHPSDPVEASTNKESRKSLASFPTYVEVPGPCDPEDLIDGIIFAANYLGSTQLLSDKTPSKNVRMMQAQEAVSRIKMAQKLAKSRKKAPEGESQPMTEVDLFISTQRIKVLNADTQETMMDHPLRTISYIADIGNIVVLMARRRMPRSNSQENVEASHPSQDGKRQYKMICHVFESEDAQLIAQSIGQAFSVAYQEFLRANGINPEDLSQKEYSDLLNTQDMYNDDLIHFSKSENCKDVFIEKQKGEILGVVIVESGWGSILPTVIIANMMHGGPAEKSGKLNIGDQIMSINGTSLVGLPLSTCQSIIKGLKNQSRVKLNIVRCPPVTTVLIRRPDLRYQLGFSVQNGIICSLMRGGIAERGGVRVGHRIIEINGQSVVATPHEKIVHILSNAVGEIHMKTMPAAMYRLLTAQEQPVYI
As to B1, the binding entry with PrSciAICD(wt) and with AICD(wt) peptide was “binds” each time.
